Experimental data published in the supplement of paper PMC12823440, “Inhibitors supercharge kinase turnover through native proteolytic circuits” (Nature, 2025).
The other results are listed elsewhere or left out. The calls rarely recur for the same compound in another form.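 Kinases, fused to nanoluciferase, were expressed in K562 cells; luminescence was measured every 4 h from 2 to 18 h as percent of control (DMSO = 100%, positive control = 0%). A time point is decreased if signal falls significantly (2 sigma). Hits were called by the authors by a rule that is not shown; the count of time points alone does not decide it.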

Amino acid sequences for entries named in this document (tags omitted). A change or cut given only in a name is not applied to a line headed by its entry.
UniProt P00519, whole entry: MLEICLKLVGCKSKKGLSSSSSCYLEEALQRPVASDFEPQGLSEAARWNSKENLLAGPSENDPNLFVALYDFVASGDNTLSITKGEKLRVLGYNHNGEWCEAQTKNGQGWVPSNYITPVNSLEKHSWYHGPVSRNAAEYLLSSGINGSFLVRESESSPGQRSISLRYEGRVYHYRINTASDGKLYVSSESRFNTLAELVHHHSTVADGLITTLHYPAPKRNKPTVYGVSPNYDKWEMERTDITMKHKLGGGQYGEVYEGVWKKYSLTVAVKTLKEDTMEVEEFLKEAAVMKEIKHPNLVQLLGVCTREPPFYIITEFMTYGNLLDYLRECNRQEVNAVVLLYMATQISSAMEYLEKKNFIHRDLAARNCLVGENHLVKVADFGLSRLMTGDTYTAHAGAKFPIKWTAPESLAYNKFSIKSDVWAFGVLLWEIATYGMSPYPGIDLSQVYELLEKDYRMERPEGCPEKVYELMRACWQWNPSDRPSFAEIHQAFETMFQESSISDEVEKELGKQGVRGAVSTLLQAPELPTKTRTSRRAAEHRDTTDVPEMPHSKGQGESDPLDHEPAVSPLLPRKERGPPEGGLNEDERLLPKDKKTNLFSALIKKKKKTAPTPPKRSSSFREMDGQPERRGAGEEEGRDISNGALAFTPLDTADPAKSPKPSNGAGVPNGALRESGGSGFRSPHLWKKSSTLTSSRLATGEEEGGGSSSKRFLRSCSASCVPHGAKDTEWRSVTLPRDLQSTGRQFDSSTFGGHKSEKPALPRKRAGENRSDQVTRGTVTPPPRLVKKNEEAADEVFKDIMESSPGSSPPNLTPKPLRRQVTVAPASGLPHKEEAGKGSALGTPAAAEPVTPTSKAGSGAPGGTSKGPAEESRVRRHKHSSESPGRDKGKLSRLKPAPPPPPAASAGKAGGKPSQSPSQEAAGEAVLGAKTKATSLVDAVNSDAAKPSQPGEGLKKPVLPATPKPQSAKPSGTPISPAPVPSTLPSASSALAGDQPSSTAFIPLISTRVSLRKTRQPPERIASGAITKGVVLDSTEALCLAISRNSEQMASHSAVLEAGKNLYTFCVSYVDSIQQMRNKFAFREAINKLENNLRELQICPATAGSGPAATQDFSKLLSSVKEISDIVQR
UniProt P10398: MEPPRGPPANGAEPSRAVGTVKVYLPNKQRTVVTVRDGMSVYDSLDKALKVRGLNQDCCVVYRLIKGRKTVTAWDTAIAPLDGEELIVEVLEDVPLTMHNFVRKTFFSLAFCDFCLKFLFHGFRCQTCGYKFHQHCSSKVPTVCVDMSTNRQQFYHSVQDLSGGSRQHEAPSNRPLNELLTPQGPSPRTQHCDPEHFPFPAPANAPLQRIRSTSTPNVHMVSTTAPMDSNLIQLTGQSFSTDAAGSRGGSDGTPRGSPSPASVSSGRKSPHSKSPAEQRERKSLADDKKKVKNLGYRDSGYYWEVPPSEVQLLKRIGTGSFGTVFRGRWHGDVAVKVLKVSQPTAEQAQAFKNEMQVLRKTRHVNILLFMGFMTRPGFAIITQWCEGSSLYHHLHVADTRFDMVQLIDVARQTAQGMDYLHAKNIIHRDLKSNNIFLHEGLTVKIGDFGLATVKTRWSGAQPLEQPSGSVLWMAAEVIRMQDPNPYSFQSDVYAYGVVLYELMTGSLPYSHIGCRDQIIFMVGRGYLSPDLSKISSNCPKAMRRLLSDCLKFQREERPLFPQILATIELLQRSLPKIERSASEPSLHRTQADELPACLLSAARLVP
UniProt O14965: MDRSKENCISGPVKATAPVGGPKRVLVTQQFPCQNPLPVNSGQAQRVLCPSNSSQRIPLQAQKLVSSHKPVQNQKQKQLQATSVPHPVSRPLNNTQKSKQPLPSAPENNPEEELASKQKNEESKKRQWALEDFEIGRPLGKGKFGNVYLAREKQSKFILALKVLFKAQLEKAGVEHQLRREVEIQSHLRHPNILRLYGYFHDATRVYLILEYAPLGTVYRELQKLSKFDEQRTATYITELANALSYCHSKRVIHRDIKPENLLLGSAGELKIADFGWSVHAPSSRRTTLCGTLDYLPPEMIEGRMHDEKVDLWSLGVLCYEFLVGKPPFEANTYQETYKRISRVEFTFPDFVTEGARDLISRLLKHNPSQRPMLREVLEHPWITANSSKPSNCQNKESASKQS
UniProt Q9UQB9: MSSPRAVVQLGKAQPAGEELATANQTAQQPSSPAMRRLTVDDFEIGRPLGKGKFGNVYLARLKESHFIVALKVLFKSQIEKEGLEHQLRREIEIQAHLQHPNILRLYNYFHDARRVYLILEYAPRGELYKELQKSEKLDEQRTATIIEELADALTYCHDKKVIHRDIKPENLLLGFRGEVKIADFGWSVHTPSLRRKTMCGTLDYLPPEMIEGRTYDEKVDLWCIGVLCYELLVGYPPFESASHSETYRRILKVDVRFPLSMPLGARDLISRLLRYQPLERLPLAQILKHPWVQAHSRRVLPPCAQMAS
UniProt P51451: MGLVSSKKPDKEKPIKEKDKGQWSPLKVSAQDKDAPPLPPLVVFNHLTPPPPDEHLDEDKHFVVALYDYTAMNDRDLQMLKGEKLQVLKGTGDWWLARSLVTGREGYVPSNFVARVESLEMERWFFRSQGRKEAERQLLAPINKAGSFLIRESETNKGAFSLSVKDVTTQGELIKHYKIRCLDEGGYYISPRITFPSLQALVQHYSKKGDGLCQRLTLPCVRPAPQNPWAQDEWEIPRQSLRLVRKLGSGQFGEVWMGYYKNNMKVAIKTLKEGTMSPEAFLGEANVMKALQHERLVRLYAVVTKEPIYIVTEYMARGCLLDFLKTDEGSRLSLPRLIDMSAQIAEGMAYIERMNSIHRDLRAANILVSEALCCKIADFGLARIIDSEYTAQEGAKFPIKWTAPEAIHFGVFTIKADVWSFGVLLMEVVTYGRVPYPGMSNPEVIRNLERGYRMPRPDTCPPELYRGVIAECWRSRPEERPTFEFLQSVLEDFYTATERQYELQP
UniProt P15056, whole entry, looked up: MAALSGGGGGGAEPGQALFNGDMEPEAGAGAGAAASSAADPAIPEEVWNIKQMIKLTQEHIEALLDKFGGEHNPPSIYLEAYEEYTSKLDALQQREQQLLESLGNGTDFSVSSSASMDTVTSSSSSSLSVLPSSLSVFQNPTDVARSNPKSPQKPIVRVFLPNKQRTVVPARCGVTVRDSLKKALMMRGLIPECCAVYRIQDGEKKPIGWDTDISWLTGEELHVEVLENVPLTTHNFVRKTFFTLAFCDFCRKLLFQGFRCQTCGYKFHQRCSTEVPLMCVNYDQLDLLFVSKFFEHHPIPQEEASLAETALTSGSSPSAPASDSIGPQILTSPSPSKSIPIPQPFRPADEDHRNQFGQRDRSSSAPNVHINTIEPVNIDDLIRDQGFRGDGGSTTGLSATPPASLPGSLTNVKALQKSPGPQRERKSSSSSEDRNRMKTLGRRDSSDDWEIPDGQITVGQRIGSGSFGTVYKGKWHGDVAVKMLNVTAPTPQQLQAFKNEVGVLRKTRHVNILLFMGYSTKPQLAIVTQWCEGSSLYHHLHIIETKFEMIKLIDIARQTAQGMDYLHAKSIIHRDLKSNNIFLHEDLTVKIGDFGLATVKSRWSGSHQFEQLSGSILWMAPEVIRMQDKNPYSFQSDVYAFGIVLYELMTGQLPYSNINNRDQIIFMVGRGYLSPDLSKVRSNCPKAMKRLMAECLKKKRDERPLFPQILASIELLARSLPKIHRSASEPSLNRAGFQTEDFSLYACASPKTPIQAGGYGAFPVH
UniProt Q06187: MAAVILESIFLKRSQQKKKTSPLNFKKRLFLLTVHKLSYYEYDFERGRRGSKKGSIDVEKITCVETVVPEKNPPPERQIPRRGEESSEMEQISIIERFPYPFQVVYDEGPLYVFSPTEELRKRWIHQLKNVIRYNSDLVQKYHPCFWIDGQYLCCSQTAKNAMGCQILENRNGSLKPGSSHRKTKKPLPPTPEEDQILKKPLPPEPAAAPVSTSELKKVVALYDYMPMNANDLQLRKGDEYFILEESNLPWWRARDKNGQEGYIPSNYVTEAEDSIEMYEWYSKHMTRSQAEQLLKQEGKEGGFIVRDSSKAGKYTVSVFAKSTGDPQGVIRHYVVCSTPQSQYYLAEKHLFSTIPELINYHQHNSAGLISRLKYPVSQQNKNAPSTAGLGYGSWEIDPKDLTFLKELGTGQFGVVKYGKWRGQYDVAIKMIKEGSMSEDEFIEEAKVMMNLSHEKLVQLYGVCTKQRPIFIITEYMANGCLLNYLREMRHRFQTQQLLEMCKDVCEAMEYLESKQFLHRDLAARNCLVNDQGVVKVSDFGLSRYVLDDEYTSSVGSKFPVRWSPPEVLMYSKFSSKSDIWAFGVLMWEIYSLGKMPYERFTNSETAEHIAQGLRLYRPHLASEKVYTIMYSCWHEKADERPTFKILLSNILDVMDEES
UniProt Q9UQM7, whole entry: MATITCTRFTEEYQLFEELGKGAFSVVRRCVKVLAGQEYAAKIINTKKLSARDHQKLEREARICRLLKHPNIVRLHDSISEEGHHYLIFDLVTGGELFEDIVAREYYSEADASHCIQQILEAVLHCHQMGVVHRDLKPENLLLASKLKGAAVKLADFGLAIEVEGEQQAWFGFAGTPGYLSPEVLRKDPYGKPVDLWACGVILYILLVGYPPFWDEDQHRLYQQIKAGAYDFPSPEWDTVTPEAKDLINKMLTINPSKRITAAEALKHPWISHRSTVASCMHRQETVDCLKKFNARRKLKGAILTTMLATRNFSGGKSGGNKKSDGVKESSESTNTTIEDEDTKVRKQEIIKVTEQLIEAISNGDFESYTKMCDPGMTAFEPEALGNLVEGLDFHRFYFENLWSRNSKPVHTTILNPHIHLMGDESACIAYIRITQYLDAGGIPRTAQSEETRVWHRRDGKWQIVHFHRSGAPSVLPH
UniProt Q15131: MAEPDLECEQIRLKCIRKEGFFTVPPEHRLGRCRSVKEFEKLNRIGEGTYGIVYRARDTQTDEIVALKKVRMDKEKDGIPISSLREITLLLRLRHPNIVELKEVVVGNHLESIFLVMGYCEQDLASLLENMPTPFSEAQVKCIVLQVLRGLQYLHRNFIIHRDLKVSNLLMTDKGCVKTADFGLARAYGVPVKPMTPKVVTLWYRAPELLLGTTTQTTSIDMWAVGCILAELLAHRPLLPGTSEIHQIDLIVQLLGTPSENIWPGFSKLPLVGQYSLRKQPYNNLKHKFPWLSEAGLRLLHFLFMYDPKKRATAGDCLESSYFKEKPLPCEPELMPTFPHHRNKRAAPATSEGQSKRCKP
UniProt Q00526: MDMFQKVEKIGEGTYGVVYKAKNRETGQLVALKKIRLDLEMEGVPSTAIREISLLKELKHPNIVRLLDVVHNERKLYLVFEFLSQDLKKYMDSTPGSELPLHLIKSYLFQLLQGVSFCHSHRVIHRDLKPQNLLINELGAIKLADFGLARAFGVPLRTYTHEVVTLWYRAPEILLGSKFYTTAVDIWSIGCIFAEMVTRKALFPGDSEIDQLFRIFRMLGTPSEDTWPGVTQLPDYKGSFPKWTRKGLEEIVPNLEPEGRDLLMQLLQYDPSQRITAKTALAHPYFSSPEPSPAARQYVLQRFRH
UniProt P11802: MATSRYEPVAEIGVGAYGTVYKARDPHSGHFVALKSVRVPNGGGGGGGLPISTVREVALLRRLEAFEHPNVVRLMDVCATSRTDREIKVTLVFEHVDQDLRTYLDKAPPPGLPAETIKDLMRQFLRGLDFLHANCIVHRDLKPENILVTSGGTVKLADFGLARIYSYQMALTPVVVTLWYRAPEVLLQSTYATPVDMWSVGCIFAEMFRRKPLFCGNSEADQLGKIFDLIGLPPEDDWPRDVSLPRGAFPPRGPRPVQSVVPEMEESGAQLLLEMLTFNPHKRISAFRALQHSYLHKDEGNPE
UniProt Q00535, whole entry, looked up: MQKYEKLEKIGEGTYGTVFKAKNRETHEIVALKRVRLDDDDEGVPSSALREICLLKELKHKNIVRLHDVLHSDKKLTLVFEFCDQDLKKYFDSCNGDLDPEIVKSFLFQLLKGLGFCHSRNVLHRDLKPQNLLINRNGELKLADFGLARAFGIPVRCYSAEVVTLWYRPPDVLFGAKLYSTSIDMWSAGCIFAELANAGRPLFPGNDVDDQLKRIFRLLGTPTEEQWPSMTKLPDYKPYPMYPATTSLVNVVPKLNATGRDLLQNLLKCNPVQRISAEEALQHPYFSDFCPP
UniProt Q00534, whole entry: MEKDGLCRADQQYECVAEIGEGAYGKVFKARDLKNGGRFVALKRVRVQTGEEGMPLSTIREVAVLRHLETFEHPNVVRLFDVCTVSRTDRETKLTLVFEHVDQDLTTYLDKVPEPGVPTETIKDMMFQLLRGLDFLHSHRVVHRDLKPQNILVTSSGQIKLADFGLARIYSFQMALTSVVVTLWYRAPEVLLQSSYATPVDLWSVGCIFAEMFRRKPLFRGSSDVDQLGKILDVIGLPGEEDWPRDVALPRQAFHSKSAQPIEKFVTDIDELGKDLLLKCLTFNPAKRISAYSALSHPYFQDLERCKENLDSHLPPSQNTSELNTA

Legend:
Experiment in all cases: kinase-Nluc reporter destabilization hit call (1 = scored as downregulated) (binary); higher = compound decreases kinase abundance
Conditions in all cases: K562; 2-18 h
ABL1 = ABL1 (UniProt P00519)
AKT1 = AKT1 (UniProt P31749)
ALK = ALK (UniProt Q9UM73)
ARAF = ARAF (UniProt P10398)
AURKA = AURKA (UniProt O14965)
AURKB = AURKB (UniProt Q96GD4)
AURKC = AURKC (UniProt Q9UQB9)
BLK = BLK (UniProt P51451)
BMX = BMX (UniProt P51813)
BRAF = BRAF (UniProt P15056)
BRAF_V600E = test system: BRAF_V600E
BTK = BTK (UniProt Q06187)
CAMK2A = CAMK2A (UniProt Q9UQM7)
CAMK2G = CAMK2G (UniProt Q13555)
CDK10 = CDK10 (UniProt Q15131)
CDK2 = CDK2 (UniProt P24941)
CDK3 = CDK3 (UniProt Q00526)
CDK4 = CDK4 (UniProt P11802)
CDK5 = CDK5 (UniProt Q00535)
CDK6 = CDK6 (UniProt Q00534)

Measured: kinase-Nluc reporter destabilization hit call

COc1ccc(-c2cc(=O)c3c(OC)cc(OC)c(OC)c3o2)cc1 [6-Demethoxytangeretin] (10 µM)
inactive: ABL1 = 0 | AKT1 = 0 | ALK 0 | ARAF 0 | AURKA 0 | AURKB 0 | AURKC 0 | BLK 0 | BMX 0 | BRAF 0 | BRAF_V600E 0 | BTK 0 | CAMK2A 0 | CAMK2G 0 | CDK10 = 0 | CDK2 = 0 | CDK3 = 0 | CDK4 = 0 | CDK5 = 0 | CDK6 = 0

O=C(ON=C1c2ccccc2-c2nc3ccccc3nc21)c1ccco1 (2.5 µM)
inactive: ABL1 = 0 | AKT1 = 0 | ALK 0 | ARAF 0 | AURKA 0 | AURKB 0 | AURKC 0 | BLK 0 | BMX 0 | BRAF 0 | BRAF_V600E 0 | BTK 0 | CAMK2A 0 | CAMK2G 0 | CDK10 = 0 | CDK2 = 0 | CDK3 = 0 | CDK4 = 0 | CDK5 = 0 | CDK6 = 0

Cc1ccc(-n2nc(C(C)(C)C)cc2NC(=O)Nc2ccc(OCCN3CCOCC3)cc2)cc1 (10 µM)
inactive: ABL1 = 0 | AKT1 = 0 | ALK 0 | ARAF 0 | AURKA 0 | AURKB 0 | AURKC 0 | BLK 0 | BMX 0 | BRAF 0 | BRAF_V600E 0 | BTK 0 | CAMK2A 0 | CAMK2G 0 | CDK10 = 0 | CDK2 = 0 | CDK3 = 0 | CDK4 = 0 | CDK5 = 0 | CDK6 = 0

COc1cc2c(cc1O)C[C@H]1c3cc(O)c(OC)cc3CC[N@@+]1(C)C2 [Phellodendrine] (10 µM)
inactive: ABL1 = 0 | AKT1 = 0 | ALK 0 | ARAF 0 | AURKA 0 | AURKB 0 | AURKC 0 | BLK 0 | BMX 0 | BRAF 0 | BRAF_V600E 0 | BTK 0 | CAMK2A 0 | CAMK2G 0 | CDK10 = 0 | CDK2 = 0 | CDK3 = 0 | CDK4 = 0 | CDK5 = 0 | CDK6 = 0

CC(C)Oc1ccc(F)c(-c2cnc(N)c(C(=O)Nc3cnccc3N3CCC[C@@H](C(=O)O)C3)n2)c1 (2 µM)
inactive: ABL1 = 0 | AKT1 = 0 | ALK 0 | ARAF 0 | AURKA 0 | AURKB 0 | AURKC 0 | BLK 0 | BMX 0 | BRAF 0 | BRAF_V600E 0 | BTK 0 | CAMK2A 0 | CAMK2G 0 | CDK10 = 0 | CDK2 = 0 | CDK3 = 0 | CDK4 = 0 | CDK5 = 0 | CDK6 = 0

COc1cc2c(cc1Nc1ncc(C(N)=O)c(Nc3c(F)cccc3C(F)(F)F)n1)CN(C)CC2 (2.5 µM)
inactive: ABL1 = 0 | AKT1 = 0 | ALK 0 | ARAF 0 | AURKA 0 | AURKB 0 | AURKC 0 | BLK 0 | BMX 0 | BRAF 0 | BRAF_V600E 0 | BTK 0 | CAMK2A 0 | CAMK2G 0 | CDK10 = 0 | CDK2 = 0 | CDK3 = 0 | CDK4 = 0 | CDK5 = 0 | CDK6 = 0

COc1cc(N2CCC(N3CCN(C)CC3)CC2)ccc1Nc1ncc(Cl)c(-c2c[nH]c3ccccc23)n1 (2.5 µM)
inactive: ABL1 = 0 | AKT1 = 0 | ALK 0 | ARAF 0 | AURKA 0 | AURKB 0 | AURKC 0 | BLK 0 | BMX 0 | BRAF 0 | BRAF_V600E 0 | BTK 0 | CAMK2A 0 | CAMK2G 0 | CDK10 = 0 | CDK2 = 0 | CDK3 = 0 | CDK4 = 0 | CDK5 = 0 | CDK6 = 0

Cc1cc(O)c2c(c1)C(=O)c1cccc(O)c1C2=O [Chrysophanol] (2 µM)
inactive: ABL1 = 0 | AKT1 = 0 | ALK 0 | ARAF 0 | AURKA 0 | AURKB 0 | AURKC 0 | BLK 0 | BMX 0 | BRAF 0 | BRAF_V600E 0 | BTK 0 | CAMK2A 0 | CAMK2G 0 | CDK10 = 0 | CDK2 = 0 | CDK3 = 0 | CDK4 = 0 | CDK5 = 0 | CDK6 = 0

O=C1CC[C@H](NC(=O)Cc2ccccc2)C(=O)N1 [Antineoplaston A10] (10 µM)
inactive: ABL1 = 0 | AKT1 = 0 | ALK 0 | ARAF 0 | AURKA 0 | AURKB 0 | AURKC 0 | BLK 0 | BMX 0 | BRAF 0 | BRAF_V600E 0 | BTK 0 | CAMK2A 0 | CAMK2G 0 | CDK10 = 0 | CDK2 = 0 | CDK3 = 0 | CDK4 = 0 | CDK5 = 0 | CDK6 = 0
